In assay [1] the target is GST‐tagged GTPγS‐loaded Rho (1–181) (UniProt P61586). In words: pull-down; GTPγS-loaded GST-Rho (1-181) immobilised on GST-resin, incubated with lysates of F/F, BRAFΔ/Δ and RAF1Δ/Δ pMECs stimulated with 200 ng/mL VEGF (160 μg on 70 μL 50% beads), overnight at 4 °C; immunoblot; only the target purified. (A western blot detects proteins with antibodies after separation by electrophoresis.)

By UniProt entry, the sequences of proteins in these tests, tags left out. Residues count along the entry.
UniProt P61586, residues 1-181: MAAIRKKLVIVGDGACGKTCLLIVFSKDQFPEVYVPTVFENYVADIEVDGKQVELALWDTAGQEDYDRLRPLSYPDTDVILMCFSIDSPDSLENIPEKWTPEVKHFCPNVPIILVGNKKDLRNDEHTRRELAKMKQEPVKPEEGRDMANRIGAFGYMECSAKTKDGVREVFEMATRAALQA
UniProt P28028: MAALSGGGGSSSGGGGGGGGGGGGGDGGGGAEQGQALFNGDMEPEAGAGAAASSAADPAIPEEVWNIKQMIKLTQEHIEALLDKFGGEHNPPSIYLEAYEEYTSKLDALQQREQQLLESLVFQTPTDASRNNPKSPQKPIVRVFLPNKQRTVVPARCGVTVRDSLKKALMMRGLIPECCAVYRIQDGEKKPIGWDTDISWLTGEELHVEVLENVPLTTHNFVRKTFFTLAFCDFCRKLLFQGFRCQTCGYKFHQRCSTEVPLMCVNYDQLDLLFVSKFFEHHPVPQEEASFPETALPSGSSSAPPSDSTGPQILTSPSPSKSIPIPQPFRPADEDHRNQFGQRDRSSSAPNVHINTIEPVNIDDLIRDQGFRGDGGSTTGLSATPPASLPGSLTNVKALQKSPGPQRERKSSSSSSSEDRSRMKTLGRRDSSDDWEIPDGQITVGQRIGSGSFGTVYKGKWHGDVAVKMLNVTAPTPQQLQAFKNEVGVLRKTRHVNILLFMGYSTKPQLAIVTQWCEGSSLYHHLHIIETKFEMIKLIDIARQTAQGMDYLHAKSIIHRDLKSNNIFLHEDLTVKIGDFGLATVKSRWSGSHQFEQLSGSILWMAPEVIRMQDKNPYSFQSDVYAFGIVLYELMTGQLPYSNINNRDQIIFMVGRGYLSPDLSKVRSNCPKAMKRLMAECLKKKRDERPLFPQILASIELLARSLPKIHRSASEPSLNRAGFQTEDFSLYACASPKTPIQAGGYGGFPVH
UniProt P70336: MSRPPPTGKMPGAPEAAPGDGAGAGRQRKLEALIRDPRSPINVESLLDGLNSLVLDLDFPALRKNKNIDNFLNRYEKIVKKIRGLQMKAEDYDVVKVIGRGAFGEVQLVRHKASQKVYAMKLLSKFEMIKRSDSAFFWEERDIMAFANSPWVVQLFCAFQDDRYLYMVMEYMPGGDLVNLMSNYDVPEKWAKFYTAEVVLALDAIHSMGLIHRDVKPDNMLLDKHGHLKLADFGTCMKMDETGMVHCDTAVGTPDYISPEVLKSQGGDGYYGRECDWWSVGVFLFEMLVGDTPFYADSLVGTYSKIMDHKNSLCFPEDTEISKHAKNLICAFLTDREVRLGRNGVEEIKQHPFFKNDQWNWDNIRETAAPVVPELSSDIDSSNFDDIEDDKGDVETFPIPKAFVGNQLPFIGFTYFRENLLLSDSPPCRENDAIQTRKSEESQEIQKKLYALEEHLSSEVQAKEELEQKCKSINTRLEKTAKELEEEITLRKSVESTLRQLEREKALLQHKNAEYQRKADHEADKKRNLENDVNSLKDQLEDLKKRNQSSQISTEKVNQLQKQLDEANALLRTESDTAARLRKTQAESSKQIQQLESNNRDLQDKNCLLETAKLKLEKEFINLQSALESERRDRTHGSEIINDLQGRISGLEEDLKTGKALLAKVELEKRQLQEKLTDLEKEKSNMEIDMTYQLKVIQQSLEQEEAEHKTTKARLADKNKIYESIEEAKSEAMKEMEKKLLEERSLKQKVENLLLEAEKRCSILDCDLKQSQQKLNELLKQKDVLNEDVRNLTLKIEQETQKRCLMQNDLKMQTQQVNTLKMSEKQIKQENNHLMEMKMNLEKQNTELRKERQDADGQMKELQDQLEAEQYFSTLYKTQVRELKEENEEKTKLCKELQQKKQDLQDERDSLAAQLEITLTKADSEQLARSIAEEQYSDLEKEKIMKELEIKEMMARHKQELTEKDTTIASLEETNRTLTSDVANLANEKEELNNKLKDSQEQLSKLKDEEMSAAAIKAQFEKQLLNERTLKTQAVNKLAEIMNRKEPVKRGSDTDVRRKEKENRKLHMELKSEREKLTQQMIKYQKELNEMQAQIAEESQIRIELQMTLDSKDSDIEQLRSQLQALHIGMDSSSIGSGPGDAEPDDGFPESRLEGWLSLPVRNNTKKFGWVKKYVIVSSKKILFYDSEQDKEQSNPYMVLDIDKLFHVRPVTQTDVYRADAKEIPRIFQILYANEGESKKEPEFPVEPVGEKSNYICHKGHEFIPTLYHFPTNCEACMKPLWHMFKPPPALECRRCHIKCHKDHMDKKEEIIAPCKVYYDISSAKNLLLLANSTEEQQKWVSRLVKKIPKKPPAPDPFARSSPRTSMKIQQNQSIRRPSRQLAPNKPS
UniProt P35918, residues 20-1345: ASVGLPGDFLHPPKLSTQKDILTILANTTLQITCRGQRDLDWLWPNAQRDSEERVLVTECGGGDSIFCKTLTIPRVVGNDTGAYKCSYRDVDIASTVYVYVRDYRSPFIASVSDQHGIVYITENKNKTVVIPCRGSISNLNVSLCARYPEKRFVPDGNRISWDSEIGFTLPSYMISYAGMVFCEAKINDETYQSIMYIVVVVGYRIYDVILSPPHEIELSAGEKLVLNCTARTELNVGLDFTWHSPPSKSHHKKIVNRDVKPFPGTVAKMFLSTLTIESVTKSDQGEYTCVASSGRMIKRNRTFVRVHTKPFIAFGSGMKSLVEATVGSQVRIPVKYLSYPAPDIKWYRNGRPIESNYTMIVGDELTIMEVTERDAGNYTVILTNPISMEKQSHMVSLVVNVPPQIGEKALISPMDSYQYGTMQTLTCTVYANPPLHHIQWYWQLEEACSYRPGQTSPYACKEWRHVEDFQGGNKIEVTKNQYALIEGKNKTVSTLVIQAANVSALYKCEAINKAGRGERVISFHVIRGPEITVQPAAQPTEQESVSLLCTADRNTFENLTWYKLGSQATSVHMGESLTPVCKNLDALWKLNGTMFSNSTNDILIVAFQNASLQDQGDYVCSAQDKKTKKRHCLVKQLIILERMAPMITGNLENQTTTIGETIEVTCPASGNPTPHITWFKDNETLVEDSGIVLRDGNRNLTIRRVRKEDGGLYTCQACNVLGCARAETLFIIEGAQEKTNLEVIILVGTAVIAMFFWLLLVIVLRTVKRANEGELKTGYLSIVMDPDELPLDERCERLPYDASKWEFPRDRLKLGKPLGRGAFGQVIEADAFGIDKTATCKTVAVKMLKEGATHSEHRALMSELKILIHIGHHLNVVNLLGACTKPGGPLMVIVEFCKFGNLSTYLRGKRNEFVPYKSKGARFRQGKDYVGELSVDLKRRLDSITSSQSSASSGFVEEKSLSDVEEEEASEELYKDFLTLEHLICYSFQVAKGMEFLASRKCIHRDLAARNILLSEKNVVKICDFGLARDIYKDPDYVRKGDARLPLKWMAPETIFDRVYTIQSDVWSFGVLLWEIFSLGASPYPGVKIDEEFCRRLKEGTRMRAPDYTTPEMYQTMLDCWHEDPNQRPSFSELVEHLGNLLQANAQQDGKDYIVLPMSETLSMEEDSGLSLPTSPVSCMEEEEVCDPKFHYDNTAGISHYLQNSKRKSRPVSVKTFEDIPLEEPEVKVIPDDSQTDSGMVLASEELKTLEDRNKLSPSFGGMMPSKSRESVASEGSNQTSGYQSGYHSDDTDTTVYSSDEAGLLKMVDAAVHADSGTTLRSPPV
UniProt Q02248: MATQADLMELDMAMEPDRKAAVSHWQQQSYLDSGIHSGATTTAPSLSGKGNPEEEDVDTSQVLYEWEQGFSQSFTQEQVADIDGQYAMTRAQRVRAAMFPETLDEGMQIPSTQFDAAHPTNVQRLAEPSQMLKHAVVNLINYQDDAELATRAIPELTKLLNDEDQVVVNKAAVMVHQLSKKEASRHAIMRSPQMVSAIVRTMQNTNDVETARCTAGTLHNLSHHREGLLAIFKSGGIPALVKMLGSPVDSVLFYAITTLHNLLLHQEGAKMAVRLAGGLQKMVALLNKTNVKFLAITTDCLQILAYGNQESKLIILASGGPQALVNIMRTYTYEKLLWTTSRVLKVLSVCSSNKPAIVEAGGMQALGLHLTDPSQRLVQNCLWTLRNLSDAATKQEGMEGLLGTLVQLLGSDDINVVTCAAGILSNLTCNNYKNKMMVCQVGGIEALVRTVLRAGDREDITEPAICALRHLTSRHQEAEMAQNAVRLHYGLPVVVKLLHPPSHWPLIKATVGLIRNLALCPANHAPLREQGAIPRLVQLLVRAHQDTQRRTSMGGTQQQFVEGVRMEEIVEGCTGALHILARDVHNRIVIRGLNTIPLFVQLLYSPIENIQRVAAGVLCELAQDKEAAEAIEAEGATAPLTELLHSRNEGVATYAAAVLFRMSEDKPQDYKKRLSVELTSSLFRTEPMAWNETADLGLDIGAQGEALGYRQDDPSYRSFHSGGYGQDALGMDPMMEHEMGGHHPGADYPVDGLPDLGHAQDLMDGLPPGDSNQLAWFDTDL

For assay [2], the target named is T1, vascular endothelial cadherin (mouse (endogenous in pMECs)) (UniProt P55284).
T1 sequence: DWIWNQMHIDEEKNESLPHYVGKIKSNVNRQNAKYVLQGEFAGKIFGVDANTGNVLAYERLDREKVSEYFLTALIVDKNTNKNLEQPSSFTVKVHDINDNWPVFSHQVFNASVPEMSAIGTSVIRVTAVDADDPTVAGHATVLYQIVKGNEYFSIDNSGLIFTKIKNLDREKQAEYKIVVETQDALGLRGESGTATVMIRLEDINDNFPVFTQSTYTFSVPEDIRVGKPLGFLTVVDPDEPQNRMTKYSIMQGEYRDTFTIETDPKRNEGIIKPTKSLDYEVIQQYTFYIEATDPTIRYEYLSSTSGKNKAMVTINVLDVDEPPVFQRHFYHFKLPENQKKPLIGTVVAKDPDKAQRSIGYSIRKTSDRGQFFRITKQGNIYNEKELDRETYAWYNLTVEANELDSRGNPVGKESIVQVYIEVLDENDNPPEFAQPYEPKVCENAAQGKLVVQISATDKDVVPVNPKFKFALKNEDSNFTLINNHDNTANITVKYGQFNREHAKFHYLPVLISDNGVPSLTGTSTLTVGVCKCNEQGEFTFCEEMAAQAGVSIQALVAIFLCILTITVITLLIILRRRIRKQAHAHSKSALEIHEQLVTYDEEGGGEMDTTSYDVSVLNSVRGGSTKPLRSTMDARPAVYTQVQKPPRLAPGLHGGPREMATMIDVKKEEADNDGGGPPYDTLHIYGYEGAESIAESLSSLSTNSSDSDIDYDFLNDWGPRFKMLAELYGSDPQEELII
In words: co-IP; VE-Cadherin immunoprecipitates from lysates of F/F and BRAFΔ/Δ pMEC monolayers; Protein G Sepharose with antibody, 4 °C overnight; 25 mM HEPES, 150 mM NaCl, 1 mM EGTA, 0.5% NP-40, 10% glycerol; immunoblot.

The target of assay [3] is RAF1 (endogenous, pMECs) (mouse (endogenous in pMECs)) (UniProt Q99N57). In words: co-IP; RAF1 immunoprecipitates from lysates of F/F and BRAFΔ/Δ pMEC monolayers; Protein G Sepharose with antibody, 4 °C overnight; 25 mM HEPES, 150 mM NaCl, 1 mM EGTA, 0.5% NP-40, 10% glycerol; immunoblot.

These are yes or no findings as the source states them, for the method shown. In cells and extracts the contact can be indirect. Some entries that bind do so weakly or less than the wild type.

For “BRAF (endogenous, pMECs) (from UniProt P28028 1-751) (enzyme)”, the binding result in assay [1] was “no binding”; in assay [2], “binds weakly”.
Consider “RAF1 (endogenous, pMECs) (from UniProt Q99N57 1-648) (enzyme)”, for which the binding result in assay [1] is recorded as “binds”.
As to “RHO‐dependent kinase α (from UniProt P70336 1-1388) (enzyme)”, the binding result in assay [1] and in assay [3] was “binds” in each case.
For “VEGFR2 (from UniProt P35918 20-1345) (receptor)”, the binding entry in assay [2] is given as “binds”.
In the case of β catenin (from UniProt Q02248 1-781), in assay [2], the binding entry was “binds”.

(Values after publication PMC6617973.)
